# Assay results

The results are deposited in PubChem (AID1745848; NCATS, 2022).

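A cell-based luciferase reporter for ATXN2 expression, read by light output at 24 h, with a viability multiplex. Compounds were tested as a dilution series from about 0.0037 to 57 µM. The number is the fitted half-maximal inhibitory concentration (AC50); a lower value means a more potent inhibitor. Calls come from curve class and activity score: actives score 40–100, while inconclusive compounds (weak, partial, poorly fitted or single-point curves) score 1–39.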

Values are in µM. Every entry below has the call inconclusive. These entries are mostly ones the record files as inconclusive; other results of the assay are not listed here. Potencies fitted to partial, single-point or poorly fitting curves are rough. Activity scores are not listed here.

* CC(C)CCn1c(N)c(C(=O)NCc2cccs2)c2nc3ccccc3nc21 | Potency 14.13 µM (inhibitor, partial curve, poor fit)
* COc1ccc(OC)c(NC(=O)CSc2nnnn2-c2ccc3c(c2)OCO3)c1 | Potency 6.31 µM (inhibitor, partial curve, poor fit)
* COc1cc(-c2nnc(SCC(=O)N(Cc3ccccc3)C(C)(C)C)o2)cc(OC)c1OC | Potency 3.162 µM (inhibitor, single point)
* COc1cccc(C(=O)Oc2c(CN3CCOCC3)cc(Cl)c3cccnc23)c1 | Potency 10 µM (inhibitor, partial curve, poor fit)
* Cc1ccc2c(Cl)cc(Cl)c(OCC(=O)Nc3cc(S(=O)(=O)N(C)C)ccc3C)c2n1 | Potency 3.162 µM (inhibitor, partial curve)
* COc1ccc(C(C)=O)cc1CC1(C)C(=O)Nc2ccc(-c3cccc(C(F)(F)F)c3)cc21 (stereo not shown) | Potency 31.62 µM (inhibitor, single point)
* C[n+]1c2n(c3ccccc31)N=C(c1ccccc1)CS2 | Potency 15.85 µM (inhibitor, partial curve, poor fit)
* CN1CCCC1CCOC(C)(c1ccccc1)c1ccc(Cl)cc1 (stereo not shown) | Potency 19.95 µM (inhibitor, partial curve, poor fit)
* Nc1c(C(=O)NCCN2CCOCC2)c2nc3ccccc3nc2n1CCc1ccccc1F | Potency 22.39 µM (inhibitor, partial curve, poor fit)
* Cc1cccn2c(=O)c3cc(C(=O)NCCc4ccccc4)c(=N)n(CCCn4ccnc4)c3nc12 | Potency 17.78 µM (inhibitor, partial curve, poor fit)
* Cc1cc([N+](=O)[O-])nn1Cc1ccc(C(=O)N/N=C/c2ccc(O)cc2O)cc1 | Potency 2.512 µM (inhibitor, full curve, poor fit)
* Cc1ccc(C(=O)CN2C(=O)c3ccccc3S2(=O)=O)cc1 | Potency 2.512 µM (inhibitor, partial curve, poor fit)
* COc1ccc(C(=O)NC(=C(Cl)Cl)S(=O)(=O)c2ccc(C)cc2)cc1 | Potency 3.981 µM (inhibitor, single point)
* Cc1nonc1C(=O)N/N=C/c1ccc(O)cc1O | Potency 1.413 µM (inhibitor, partial curve)
* CCn1c(CCC(=O)Nc2nc3c(s2)CCCC3)nc2cc(S(=O)(=O)N(C)C)ccc21 | Potency 3.162 µM (inhibitor, partial curve, poor fit)
* COc1ccc(-c2c[n+]3c(n2-c2ccc(C)cc2)CCCCC3)cc1 | Potency 19.95 µM (inhibitor, partial curve, poor fit)
* O=c1c2c(nc3c(-c4ccc(Cl)cc4)c[nH]n13)CCC2 | Potency 3.548 µM (inhibitor, single point)
* CCCCn1c(=N)n(CCOc2ccc(C)cc2)c2ccccc21 | Potency 15.85 µM (inhibitor, partial curve, poor fit)
* COc1cc(C(=O)NCc2ccncc2)cc(Br)c1OCc1ccccc1 | Potency 2.818 µM (inhibitor, partial curve)
* Cc1cc(Br)ccc1NC(=O)c1cnc(N2CCN(c3ccccn3)CC2)c2ccccc12 | Potency 1.585 µM (inhibitor, partial curve, poor fit)
* COc1ccc2cc(C#N)c(N3CCN(C(=O)c4ccccc4C)CC3)nc2c1 | Potency 3.981 µM (inhibitor, partial curve)
* CC1CCC(CN2C(Nc3ccccc3)=NC[C@@H]2Cc2ccccc2)CC1 (stereo partly shown) | Potency 12.59 µM (inhibitor, partial curve)
* CCc1c(C)nc2ncnn2c1N1CCC(C(=O)Nc2ccc(C)cc2)CC1 | Potency 15.85 µM (inhibitor, partial curve, poor fit)
* COc1cccc(/C=C2\SC(=S)N(CCCC(=O)N(CCO)c3ccccc3)C2=O)c1 | Potency 6.31 µM (inhibitor, single point)
* Cc1ccc(C(=O)N/C(=C\c2ccc(-c3ccc(Cl)cc3)o2)C(=O)NCCCN(C)C)cc1 | Potency 31.62 µM (inhibitor, single point)
* CCCCn1c(SCc2ncc(-c3ccccc3)o2)nc2cc(S(N)(=O)=O)ccc21 | Potency 15.85 µM (inhibitor, partial curve, poor fit)
* CC(C)COCc1ccc(O)c2ncccc12 | Potency 8.912 µM (inhibitor, single point)
* O=C(N/N=C/c1ccc(O)cc1O)c1ccncc1 | Potency 2.818 µM (inhibitor, partial curve, poor fit)
* COc1cc(C(=O)Oc2cccc(Nc3ncnc4ccccc34)c2)cc(OC)c1OC | Potency 5.012 µM (inhibitor, single point)
* COc1ccc(-n2nc(C(=O)NCC(=O)Nc3cccc(Cl)c3)c3ccccc3c2=O)cc1OC | Potency 8.912 µM (inhibitor, partial curve, poor fit)

The first 2 entries again:

- CC(C)CCn1c(N)c(C(=O)NCc2cccs2)c2nc3ccccc3nc21 | Potency 14.13 µM (inhibitor, partial curve, poor fit)
- COc1ccc(OC)c(NC(=O)CSc2nnnn2-c2ccc3c(c2)OCO3)c1 | Potency 6.31 µM (inhibitor, partial curve, poor fit)